Laboratory results reported in article PMC4829432, “T-box3 is a ciliary protein and regulates stability of the Gli3 transcription factor to control digit number” (eLife, 2016).
These are yes or no findings as the source states them, for the method shown. In cells and extracts the contact can be indirect. Some results given as binding are weak or reduced against the parent protein; the word gives no strength. For some of these results: Where a sequence is shown, tags or fusion partners need not be part of it.

Sequences of proteins named here, by UniProt entry; tags and fusion partners are left off.
UniProt Q61602: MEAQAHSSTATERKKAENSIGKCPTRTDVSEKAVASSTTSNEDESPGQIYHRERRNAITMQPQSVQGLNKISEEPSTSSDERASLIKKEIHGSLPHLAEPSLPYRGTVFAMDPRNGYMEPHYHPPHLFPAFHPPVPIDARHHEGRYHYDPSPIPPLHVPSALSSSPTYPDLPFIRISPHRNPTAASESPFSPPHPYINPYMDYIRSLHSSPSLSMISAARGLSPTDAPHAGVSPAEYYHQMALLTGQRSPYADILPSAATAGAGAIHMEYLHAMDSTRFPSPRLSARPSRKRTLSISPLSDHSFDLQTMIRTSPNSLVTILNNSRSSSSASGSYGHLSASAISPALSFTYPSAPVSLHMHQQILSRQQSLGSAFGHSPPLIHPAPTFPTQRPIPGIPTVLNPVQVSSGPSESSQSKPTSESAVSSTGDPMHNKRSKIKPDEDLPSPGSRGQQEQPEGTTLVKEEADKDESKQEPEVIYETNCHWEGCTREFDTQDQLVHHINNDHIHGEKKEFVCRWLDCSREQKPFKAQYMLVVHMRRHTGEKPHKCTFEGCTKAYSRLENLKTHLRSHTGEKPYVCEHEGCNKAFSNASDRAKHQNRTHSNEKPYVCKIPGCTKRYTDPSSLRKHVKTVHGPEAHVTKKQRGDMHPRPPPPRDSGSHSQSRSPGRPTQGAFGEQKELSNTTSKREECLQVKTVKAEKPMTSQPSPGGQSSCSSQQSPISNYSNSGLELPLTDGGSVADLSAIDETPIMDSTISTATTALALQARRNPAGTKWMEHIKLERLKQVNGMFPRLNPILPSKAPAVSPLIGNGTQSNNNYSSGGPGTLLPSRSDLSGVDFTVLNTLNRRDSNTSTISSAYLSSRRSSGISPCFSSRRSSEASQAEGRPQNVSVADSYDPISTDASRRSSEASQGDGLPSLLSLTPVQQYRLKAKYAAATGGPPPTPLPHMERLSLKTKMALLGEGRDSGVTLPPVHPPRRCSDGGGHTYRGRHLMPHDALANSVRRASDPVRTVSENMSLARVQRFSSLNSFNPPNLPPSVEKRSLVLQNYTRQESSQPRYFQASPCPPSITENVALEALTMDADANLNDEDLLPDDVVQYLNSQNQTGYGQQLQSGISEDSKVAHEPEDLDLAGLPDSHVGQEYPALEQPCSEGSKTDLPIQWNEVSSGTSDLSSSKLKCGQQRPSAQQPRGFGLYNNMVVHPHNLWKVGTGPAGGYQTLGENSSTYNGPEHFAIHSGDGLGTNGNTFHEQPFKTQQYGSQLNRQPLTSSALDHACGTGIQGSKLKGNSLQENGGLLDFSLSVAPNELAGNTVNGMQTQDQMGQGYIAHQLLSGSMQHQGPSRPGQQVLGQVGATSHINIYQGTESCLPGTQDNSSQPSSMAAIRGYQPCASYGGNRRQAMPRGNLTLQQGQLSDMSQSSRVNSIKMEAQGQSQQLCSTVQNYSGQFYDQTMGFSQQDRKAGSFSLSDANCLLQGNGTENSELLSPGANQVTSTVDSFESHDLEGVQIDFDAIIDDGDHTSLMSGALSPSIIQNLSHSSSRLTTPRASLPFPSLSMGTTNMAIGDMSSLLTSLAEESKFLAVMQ
UniProt Q6ZWS8: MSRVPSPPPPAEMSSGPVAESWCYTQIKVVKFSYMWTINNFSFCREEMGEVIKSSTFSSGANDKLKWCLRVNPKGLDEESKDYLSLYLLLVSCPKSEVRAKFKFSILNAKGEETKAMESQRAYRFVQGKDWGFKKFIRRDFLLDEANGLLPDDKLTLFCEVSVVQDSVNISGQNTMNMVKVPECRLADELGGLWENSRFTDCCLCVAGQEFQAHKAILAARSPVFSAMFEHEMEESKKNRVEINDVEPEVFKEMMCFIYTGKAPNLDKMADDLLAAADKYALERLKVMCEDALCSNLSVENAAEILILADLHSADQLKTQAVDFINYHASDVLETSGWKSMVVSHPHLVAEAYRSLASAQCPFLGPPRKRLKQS

T1: T-box3 (Tbx3), endogenous mouse protein (mouse (endogenous in E10.5 embryos)) (UniProt P70324)
T1 sequence: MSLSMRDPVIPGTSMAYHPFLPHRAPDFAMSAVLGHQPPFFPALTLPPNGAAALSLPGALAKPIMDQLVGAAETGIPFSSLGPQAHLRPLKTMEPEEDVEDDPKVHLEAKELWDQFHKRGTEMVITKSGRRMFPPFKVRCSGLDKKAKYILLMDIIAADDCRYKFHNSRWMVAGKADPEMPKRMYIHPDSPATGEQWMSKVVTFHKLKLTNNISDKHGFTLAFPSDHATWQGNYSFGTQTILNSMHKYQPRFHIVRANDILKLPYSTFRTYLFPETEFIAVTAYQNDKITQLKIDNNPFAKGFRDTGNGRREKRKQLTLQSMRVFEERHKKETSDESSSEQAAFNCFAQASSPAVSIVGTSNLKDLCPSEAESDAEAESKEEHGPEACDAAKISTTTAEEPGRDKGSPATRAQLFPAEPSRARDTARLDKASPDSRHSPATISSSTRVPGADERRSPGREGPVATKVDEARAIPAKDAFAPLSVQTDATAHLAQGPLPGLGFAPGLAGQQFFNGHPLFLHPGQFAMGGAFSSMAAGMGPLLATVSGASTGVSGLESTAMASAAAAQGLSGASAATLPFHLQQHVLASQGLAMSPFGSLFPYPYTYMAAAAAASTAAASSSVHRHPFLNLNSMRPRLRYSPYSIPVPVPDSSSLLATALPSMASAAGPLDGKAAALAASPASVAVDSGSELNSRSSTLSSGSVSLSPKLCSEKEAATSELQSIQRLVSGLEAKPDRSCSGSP

T2: Kif7, endogenous mouse protein (mouse (endogenous in E10.5 embryos)) (UniProt B7ZNG0)
T2 sequence: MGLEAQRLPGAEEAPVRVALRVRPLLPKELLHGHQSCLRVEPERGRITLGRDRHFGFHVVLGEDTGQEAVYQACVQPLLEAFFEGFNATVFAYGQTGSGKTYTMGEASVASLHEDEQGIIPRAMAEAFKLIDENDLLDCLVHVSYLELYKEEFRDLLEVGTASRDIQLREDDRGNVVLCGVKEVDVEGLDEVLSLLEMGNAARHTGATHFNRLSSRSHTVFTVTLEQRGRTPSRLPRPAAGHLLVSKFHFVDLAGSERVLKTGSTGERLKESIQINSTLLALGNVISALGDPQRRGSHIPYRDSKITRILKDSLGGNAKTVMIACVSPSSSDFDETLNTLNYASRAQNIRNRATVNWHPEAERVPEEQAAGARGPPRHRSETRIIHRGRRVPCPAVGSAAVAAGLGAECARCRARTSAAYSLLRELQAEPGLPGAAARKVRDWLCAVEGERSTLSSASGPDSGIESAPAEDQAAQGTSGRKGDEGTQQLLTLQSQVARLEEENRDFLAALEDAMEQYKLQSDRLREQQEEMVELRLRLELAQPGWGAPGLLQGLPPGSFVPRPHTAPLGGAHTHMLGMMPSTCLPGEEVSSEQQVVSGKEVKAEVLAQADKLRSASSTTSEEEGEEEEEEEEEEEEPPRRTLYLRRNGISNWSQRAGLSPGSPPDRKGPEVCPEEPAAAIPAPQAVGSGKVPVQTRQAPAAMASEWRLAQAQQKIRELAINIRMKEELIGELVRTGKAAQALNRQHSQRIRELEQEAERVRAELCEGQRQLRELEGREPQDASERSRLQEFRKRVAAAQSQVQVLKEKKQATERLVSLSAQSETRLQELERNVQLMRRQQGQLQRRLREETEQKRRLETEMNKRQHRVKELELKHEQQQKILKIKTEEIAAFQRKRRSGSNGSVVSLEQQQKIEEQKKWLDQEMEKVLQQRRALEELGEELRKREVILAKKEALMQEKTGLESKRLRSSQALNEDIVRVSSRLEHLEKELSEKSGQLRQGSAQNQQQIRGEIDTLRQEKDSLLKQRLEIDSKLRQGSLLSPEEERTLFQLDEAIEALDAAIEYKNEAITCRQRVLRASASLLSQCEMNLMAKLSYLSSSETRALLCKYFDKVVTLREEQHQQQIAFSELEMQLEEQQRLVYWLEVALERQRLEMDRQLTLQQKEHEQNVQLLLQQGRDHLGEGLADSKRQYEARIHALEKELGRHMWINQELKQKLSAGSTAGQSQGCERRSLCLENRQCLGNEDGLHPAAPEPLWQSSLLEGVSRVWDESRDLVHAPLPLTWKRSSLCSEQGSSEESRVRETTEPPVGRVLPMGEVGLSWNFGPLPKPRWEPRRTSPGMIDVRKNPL

T3: Suppressor of fused (Sufu), endogenous mouse protein (mouse (endogenous in E10.5 embryos)) (UniProt Q9Z0P7)
T3 sequence: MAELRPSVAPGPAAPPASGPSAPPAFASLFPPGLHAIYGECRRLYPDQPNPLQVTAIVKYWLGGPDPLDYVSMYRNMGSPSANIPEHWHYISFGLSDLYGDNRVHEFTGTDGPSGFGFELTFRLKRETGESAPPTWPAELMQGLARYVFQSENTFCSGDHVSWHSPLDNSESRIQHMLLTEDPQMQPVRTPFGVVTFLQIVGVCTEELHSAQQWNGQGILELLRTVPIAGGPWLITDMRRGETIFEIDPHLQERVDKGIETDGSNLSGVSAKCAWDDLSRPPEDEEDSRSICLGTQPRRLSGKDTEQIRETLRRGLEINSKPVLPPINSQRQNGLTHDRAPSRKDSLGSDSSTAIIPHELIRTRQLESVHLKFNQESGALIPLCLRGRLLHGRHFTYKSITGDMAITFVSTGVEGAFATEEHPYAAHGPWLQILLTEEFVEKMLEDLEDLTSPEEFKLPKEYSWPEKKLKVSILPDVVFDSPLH


Experiments:
[1] = molecular target: T1, T-box3 (Tbx3), endogenous mouse protein (mouse (endogenous in E10.5 embryos)); assay: co-IP; endogenous proteins; E10.5 whole mouse embryo lysates in Dignam buffer C, control (wt) embryos; Sufu-Gli3, Sufu-Kif7 and Tbx3-Spop also assayed in Tbx3 null (Tbx3 delta-fl/delta-fl, ko) embryos, where less Sufu-Gli3 and Sufu-Kif7 co-precipitated; 5-10 ug antibody overnight at 4 C, Protein-G Dynal beads, immunoblot, densitometry
[2] = molecular target: T2, Kif7, endogenous mouse protein (mouse (endogenous in E10.5 embryos)); assay: co-IP; endogenous proteins; E10.5 mouse forelimb bud lysates in Dignam buffer C; 5-10 ug antibody overnight at 4 C, Protein-G Dynal beads, three washes, immunoblot
[3] = molecular target: T2, Kif7, endogenous mouse protein (mouse (endogenous in E10.5 embryos)); assay: co-IP; endogenous proteins; E10.5 whole mouse embryo lysates in Dignam buffer C, control (wt) embryos; Sufu-Gli3, Sufu-Kif7 and Tbx3-Spop also assayed in Tbx3 null (Tbx3 delta-fl/delta-fl, ko) embryos, where less Sufu-Gli3 and Sufu-Kif7 co-precipitated; 5-10 ug antibody overnight at 4 C, Protein-G Dynal beads, immunoblot, densitometry
[4] = molecular target: T3, Suppressor of fused (Sufu), endogenous mouse protein (mouse (endogenous in E10.5 embryos)); assay: as above
[5] = molecular target: Gli3, endogenous mouse protein as precipitated by anti-Gli3 (Gli3FL and Gli3R not told apart) (mouse (endogenous in E10.5 embryos)) (UniProt Q61602); assay: as above

Row | binding [1] | binding [2] | binding [3] | binding [4] | binding [5] | Molecule
1 | no binding |  |  |  |  | speckle-type POZ protein (Spop), endogenous mouse protein (from UniProt Q6ZWS8 1-374)
2 |  | binds | binds | no binding |  | T-box3 (Tbx3), endogenous mouse protein (protein, UniProt P70324 1-741) MSLSMRDPVIPGTSMAYHPFLPHRAPDFAMSAVLGHQPPFFPALTLPPNGAAALSLPGALAKPIMDQLVGAAETGIPFSSLGPQAHLRPLKTMEPEEDVEDDPKVHLEAKELWDQFHKRGTEMVITKSGRRMFPPFKVRCSGLDKKAKYILLMDIIAADDCRYKFHNSRWMVAGKADPEMPKRMYIHPDSPATGEQWMSKVVTFHKLKLTNNISDKHGFTLAFPSDHATWQGNYSFGTQTILNSMHKYQPRFHIVRANDILKLPYSTFRTYLFPETEFIAVTAYQNDKITQLKIDNNPFAKGFRDTGNGRREKRKQLTLQSMRVFEERHKKETSDESSSEQAAFNCFAQASSPAVSIVGTSNLKDLCPSEAESDAEAESKEEHGPEACDAAKISTTTAEEPGRDKGSPATRAQLFPAEPSRARDTARLDKASPDSRHSPATISSSTRVPGADERRSPGREGPVATKVDEARAIPAKDAFAPLSVQTDATAHLAQGPLPGLGFAPGLAGQQFFNGHPLFLHPGQFAMGGAFSSMAAGMGPLLATVSGASTGVSGLESTAMASAAAAQGLSGASAATLPFHLQQHVLASQGLAMSPFGSLFPYPYTYMAAAAAASTAAASSSVHRHPFLNLNSMRPRLRYSPYSIPVPVPDSSSLLATALPSMASAAGPLDGKAAALAASPASVAVDSGSELNSRSSTLSSGSVSLSPKLCSEKEAATSELQSIQRLVSGLEAKPDRSCSGSP
3 | no binding |  | binds |  | binds | Suppressor of fused (Sufu), endogenous mouse protein (protein, UniProt Q9Z0P7 1-484) MAELRPSVAPGPAAPPASGPSAPPAFASLFPPGLHAIYGECRRLYPDQPNPLQVTAIVKYWLGGPDPLDYVSMYRNMGSPSANIPEHWHYISFGLSDLYGDNRVHEFTGTDGPSGFGFELTFRLKRETGESAPPTWPAELMQGLARYVFQSENTFCSGDHVSWHSPLDNSESRIQHMLLTEDPQMQPVRTPFGVVTFLQIVGVCTEELHSAQQWNGQGILELLRTVPIAGGPWLITDMRRGETIFEIDPHLQERVDKGIETDGSNLSGVSAKCAWDDLSRPPEDEEDSRSICLGTQPRRLSGKDTEQIRETLRRGLEINSKPVLPPINSQRQNGLTHDRAPSRKDSLGSDSSTAIIPHELIRTRQLESVHLKFNQESGALIPLCLRGRLLHGRHFTYKSITGDMAITFVSTGVEGAFATEEHPYAAHGPWLQILLTEEFVEKMLEDLEDLTSPEEFKLPKEYSWPEKKLKVSILPDVVFDSPLH
